The target in this test is T1, S100P (human) (UniProt P25815).
T1 sequence: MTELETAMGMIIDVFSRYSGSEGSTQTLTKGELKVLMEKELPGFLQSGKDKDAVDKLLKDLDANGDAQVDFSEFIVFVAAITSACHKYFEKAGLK
In words: co-IP; cell lysates (200 μg of total protein, M-PER) incubated with 2 μg of isotype or anti-DDK antibodies overnight, then protein A-agarose beads 2 h at 4°C; blots for DDK and integrin α7.

Experimental findings from publication PMC4745748 are described below.

No constants are given. Whether binding was seen depends on the method and setting. In cells and extracts the contact can be indirect. Binding can be weak; no strength is given.

For “integrin α7 (human (endogenous in CL1-0)) (receptor)”, the binding entry was “binds”.
